These are yes or no findings as the source states them, for the method shown. In cells and extracts the contact can be indirect. Here binding means that the protein was enriched with, or labelled near, the bait; the list need not be complete.

For the test, the target named is His-tagged SARS-CoV-2 NSP3 (SARS-CoV-2) (UniProt P0DTD1). Briefly: affinity purification with mass spectrometry.

B1: DNAJC11 identified by mass spectrometry (HEK-293T cells) (protein, UniProt Q9NVH1 1-559)
chain: MATALSEEELDNEDYYSLLNVRREASSEELKAAYRRLCMLYHPDKHRDPELKSQAERLFNLVHQAYEVLSDPQTRAIYDIYGKRGLEMEGWEVVERRRTPAEIREEFERLQREREERRLQQRTNPKGTISVGVDATDLFDRYDEEYEDVSGSSFPQIEINKMHISQSIEAPLTATDTAILSGSLSTQNGNGGGSINFALRRVTSAKGWGELEFGAGDLQGPLFGLKLFRNLTPRCFVTTNCALQFSSRGIRPGLTTVLARNLDKNTVGYLQWRWGIQSAMNTSIVRDTKTSHFTVALQLGIPHSFALISYQHKFQDDDQTRVKGSLKAGFFGTVVEYGAERKISRHSVLGAAVSVGVPQGVSLKVKLNRASQTYFFPIHLTDQLLPSAMFYATVGPLVVYFAMHRLIIKPYLRAQKEKELEKQRESAATDVLQKKQEAESAVRLMQESVRRIIEAEESRMGLIIVNAWYGKFVNDKSRKSEKVKVIDVTVPLQCLVKDSKLILTEASKAGLPGFYDPCVGEEKNLKVLYQFRGVLHQVMVLDSEALRIPKQSHRIDTDG
As for B1, the binding result is “binds”.

The values above are taken from article PMC12390733.
